# Test results: patent US20110034472A1, “Novel Compounds for Treatment of Cancer and Disorders Associated With Angiogenesis Function” (UNIVERSITY OF SOUTHERN CALIFORNIA, priority 2004, published 2011)
# At least one compound was matched to its structure with a doubt left.
# System: MDA-MB-435 xenografts
# Assay: Nude mice xenograft model of human breast MDA-MB-435 cells
# Assay type: in vivo
# Procedure: FIG. 3. (A) is a schematic outline of tumor growth and dosing in xenograft models. […] Tumor growth was monitored for five weeks. Values represent the median tumor weight for each group.
# After five-days of dosing, the drug treatment was discontinued and the animals were monitored bi-weekly for five weeks.
# For statistical analysis, the % T/C value was calculated on the last day of dosing and is graphed for all of the treatment groups (FIG. 3C).
# To evaluate the extent of tumor necrosis after drug treatment tumor samples were collected from control and treated mice on day 70.
smiles,measurement,setting,value
"O=C(NNc1nc2cc(F)ccc2n2cccc12)c1cnccn1 [SC144, Pyrazine-2-carboxylic acid N′-(7-fluoro-pyrrolo[1,2-a]quinoxalin-4-yl)-hydrazide]",tumor growth reduction (% T/C),higher SC144 doses,Significant reduction in tumor growth
same,tumor growth reduction (% T/C),lowest dose of SC144 (0.3 mg/kg),marginal reduction
